Some of the results follow.

Protein sequences, listed by entry. Tags and fused reporters are not part of them.
UniProt Q0JBA9, entry or part of it: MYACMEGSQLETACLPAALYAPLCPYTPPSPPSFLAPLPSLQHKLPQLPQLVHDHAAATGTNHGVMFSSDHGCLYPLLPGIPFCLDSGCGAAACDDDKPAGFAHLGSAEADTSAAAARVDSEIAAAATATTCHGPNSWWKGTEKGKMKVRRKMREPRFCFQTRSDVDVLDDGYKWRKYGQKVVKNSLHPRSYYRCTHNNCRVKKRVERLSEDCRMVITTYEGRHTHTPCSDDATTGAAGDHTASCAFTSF

This note sets out measurements from PMC7819943, “Rice protein-binding microarrays: a tool to detect cis-acting elements near promoter regions in rice”.

The target of this test is OsWRKY34 (Oryza sativa, UniProt Q0JBA9 1-250). Kind of test: protein-binding microarray (RPBM); PBS, 2% BSA, 51.3 ng/ul salmon testes DNA, 50 uM zinc acetate, 200 nM TF, 25 C, 1 h; high values mean tight binding. The settings on record: protein: recombinant; tags: N-terminal polyhistidine and DsRed monomer fusion (pET32a); label: CyDye5-dUTP incorporated in the synthesized complementary strand; 3' TTTTT single-stranded linker to array surface; dsDNA, one strand shown. In a few lines:
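Binding signal here means per-feature fluorescence intensity in arbitrary units. The values were read on an Axon 4000B scanner after a custom Agilent array, double-stranded by primer extension with Cy5-dUTP, was incubated with 200 nM protein at 25 °C for 1 h in PBS with 2% BSA, salmon testes DNA and 50 µM zinc acetate, then washed. The proteins were transcription factors with an N-terminal polyhistidine tag and DsRed, expressed in E. coli BL21-CodonPlus and purified on Ni–NTA.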
With “GAGAGAGAGAGAGAGGGGAGGGGAGGGCGTGTGCTCGCGCCGGAGTCACCTAGTGCAG”, the binding signal was 10600 fluorescence intensity (a.u.).

As for “TTCCCGAGGATATATAATCGATCATGCTACACGTGACATACGGAGTCACCTAGTGCAG”, the binding signal is 9140 fluorescence intensity (a.u.).

Take “TTTGGTTTGGTTTGGTCTCGGTTCAGATCTTCTCTCCAAACGGAGTCACCTAGTGCAG”: the binding signal was 12700 fluorescence intensity (a.u.). Turning to “CGCATCCGCATCCATACGTCATCCGCATCCGCTTAAAAAACGGAGTCACCTAGTGCAG”, the binding signal is 8710 fluorescence intensity (a.u.). As for “TTTAACTTAGGGTGTGTTTGGTTGCTTGTATGTCCCTAGTCGGAGTCACCTAGTGCAG”, the figure is 10900 fluorescence intensity (a.u.); as for “GTTATAAGACATTTTGATTTTGGTCAAAGTAAAACTGCTTCGGAGTCACCTAGTGCAG”, 8210 fluorescence intensity (a.u.); as for “AACATCCATCACTGCAGCAAATCATCATCATCATCATCATCGGAGTCACCTAGTGCAG”, 8960 fluorescence intensity (a.u.). As for “TGATTTCTTCCACTGTCAGGTATCTCCTCCACCCTAGCCGCGGAGTCACCTAGTGCAG”, the figure is 8310 fluorescence intensity (a.u.).

In the case of “CTTTCTCCGGATTCGAATCATTCCTCTCTATCTATCTCATCGGAGTCACCTAGTGCAG”, the binding signal is 11900 fluorescence intensity (a.u.). As for “CGCCTGCCTGCCGCCACCGCCACTCCACTTTGCTTCACCGCGGAGTCACCTAGTGCAG”, the figure is 9570 fluorescence intensity (a.u.); as for “GTGCGGCGGTGGGGTTGGTCGAGGCGGCCGAGGGCTCGTCCGGAGTCACCTAGTGCAG”, 9160 fluorescence intensity (a.u.).

For “GCGCCGCCGCCGTTCGTCCTGCTGCTTCCGCCGCATCCCGCGGAGTCACCTAGTGCAG”, the binding signal is 12000 fluorescence intensity (a.u.). As for “CGGATTTGCCCAATTTGGCTCGTGTGTGAAAGCCTCCAAACGGAGTCACCTAGTGCAG”, the figure is 8490 fluorescence intensity (a.u.); as for “CTTACGAGCCAGTCTTTGAAATTCATTTGGATTTGAATTTCGGAGTCACCTAGTGCAG”, 9790 fluorescence intensity (a.u.). As for “CGTCGTTAGGTTGTCCATAGCAGCCGAATTGTTTCTGCATCGGAGTCACCTAGTGCAG”, the figure is 8100 fluorescence intensity (a.u.); as for “AATTTATTTTGTTATGAGTTGTTTTATCACTTATAGTATTCGGAGTCACCTAGTGCAG”, 9560 fluorescence intensity (a.u.). Turning to “GCCAGCCCTTGAATCCTTATTAGCTCCGCCTCTGTCCTTCCGGAGTCACCTAGTGCAG”, the binding signal is 8680 fluorescence intensity (a.u.).

For the sequence “TACCTGCCCTTTCGTCTACCTCCAGTTCCTCTCTCTCTCTCGGAGTCACCTAGTGCAG”, the binding signal is 8850 fluorescence intensity (a.u.). With “CACCAGCTACTAGTCGAGCACTCTCTCCATCCTATAAAAACGGAGTCACCTAGTGCAG”, the binding signal was 8600 fluorescence intensity (a.u.).

With “ATATAGCTTGTCATCGTACTTACTTCATTTGTTTAATTATCGGAGTCACCTAGTGCAG”, the binding signal is 9880 fluorescence intensity (a.u.).

Turning to “CGTCTCGATCGTATCTACAACATACTGCTTCCAACCAACACGGAGTCACCTAGTGCAG”, the binding signal is 8250 fluorescence intensity (a.u.). On to “GGTAATAATTTGTTTAGCTCCTGGTTTGGAATGGTATATTCGGAGTCACCTAGTGCAG”, for which the binding signal is 10100 fluorescence intensity (a.u.). With “CTTTTCTTTTTTCTTTTTCTCCGATTAATGTGGGAATTTCCGGAGTCACCTAGTGCAG”, the binding signal is 8180 fluorescence intensity (a.u.).

“AAGCGGACATCTTTTCTTCCACCATCCTACTTTCCTGGTCCGGAGTCACCTAGTGCAG”: the binding signal is 14200 fluorescence intensity (a.u.). Then “AAGGGTGTGTTTGGATAATGAAAAATGGAGGGTGGAATTACGGAGTCACCTAGTGCAG”, with 8560 fluorescence intensity (a.u.). Turning to “CTCGTCTTGGTAGGTGGTGGATGGCCGGCGCGGGGATCGACGGAGTCACCTAGTGCAG”, the binding signal was 10200 fluorescence intensity (a.u.).

For the sequence “GTGGTGGTGGTGTGTGAGCTCGGGGCTTGGGGTTTTGCGGCGGAGTCACCTAGTGCAG”, the binding signal is 13300 fluorescence intensity (a.u.). Regarding “AGGGTGGGTTATATTTGAGCTGGTTAGCAAAAACTATAATCGGAGTCACCTAGTGCAG”, the binding signal was 17900 fluorescence intensity (a.u.). In the case of “CACACTGCTCCTAGTACTACAATTACACTGGTCCTGCCCGCGGAGTCACCTAGTGCAG”, the binding signal was 8680 fluorescence intensity (a.u.). For the sequence “ATATATATATATATATCTGTGTGTGTGTGTGTGTGTGTGTCGGAGTCACCTAGTGCAG”, the binding signal is 8960 fluorescence intensity (a.u.). Regarding “CCATTTCTTCTACCCCTATATATTCACCTCCATGCACAATCGGAGTCACCTAGTGCAG”, the binding signal is 8830 fluorescence intensity (a.u.).

As to “ATCACATTTTCCTACACATTCAAACTAGACAACGTTCATTCGGAGTCACCTAGTGCAG”, the binding signal was 8790 fluorescence intensity (a.u.). Regarding “GGAGTCCGTTTCGTCTTCGTCTTCGTCGTCGTCGTCTTCTCGGAGTCACCTAGTGCAG”, the binding signal was 9060 fluorescence intensity (a.u.). As for “ATTAATCCAGTTTTATGCGTTTTGTGAAAAGTTTATATATCGGAGTCACCTAGTGCAG”, the figure is 9150 fluorescence intensity (a.u.); as for “GTAGTAACATGACCAAGTTCGGATCGGTCATCAACTTCAGCGGAGTCACCTAGTGCAG”, 8420 fluorescence intensity (a.u.). Take “ACATGTAGGCATGAACATGGCTCTCTGTCTCTGCATTAACCGGAGTCACCTAGTGCAG”: the binding signal was 8050 fluorescence intensity (a.u.). Then “ATGCTATGTTCCGATGCTCACTATGGTTTCATGTTCATGGCGGAGTCACCTAGTGCAG”, with 8040 fluorescence intensity (a.u.).

For “CTGCGCGATTCCGGCGAGCCCACCGCCGCCGGCTCGCCGGCGGAGTCACCTAGTGCAG”, the binding signal is 8260 fluorescence intensity (a.u.). Take “TACCATTTCTTTCTTGCTTTTTTAATGCCTAAATCATCTTCGGAGTCACCTAGTGCAG”: the binding signal is 8050 fluorescence intensity (a.u.).

With “CGTTTTCTTTTTTCTTCCTCGCTTTCTCTCTCTCTCTCTCCGGAGTCACCTAGTGCAG”, the binding signal was 11600 fluorescence intensity (a.u.). In the case of “CAAGTTGCATGCGTGTCTTCTTCCTACCATCACTTCTCTCCGGAGTCACCTAGTGCAG”, the binding signal was 10400 fluorescence intensity (a.u.). Regarding “TTATTGACCATCGACGCCATTCTCACCATCCAGTGGTCACCGGAGTCACCTAGTGCAG”, the binding signal is 8500 fluorescence intensity (a.u.).
